From PubChem BioAssay AID1469 (National Center for Advancing Translational Sciences (NCATS), 2008)
Values joined by “and” are separate entries in the source; they are usually repeats but may differ in a detail not shown here. Equal entries are not always repeated. About 180 (0.064%) of roughly 280,000 compounds were called active. This list was built around the results that the source calls inconclusive (neither active nor inactive); the mix of calls is not that of the screen. Calls follow the shape of the dose curve; as a rule, active = well fitted inhibition curve with a large enough effect; inconclusive = small, poorly fitted or top-dose-only effect, or effect the other way; inactive = flat fitted curve, though single readings scatter. A potency beside an inconclusive call is a rough fit, not a confirmed value.

Chains of the proteins cited; added tags and fusions are not shown. Lines headed by an entry give the natural chain unless they say otherwise; changes in a name come on top.
UniProt P10828: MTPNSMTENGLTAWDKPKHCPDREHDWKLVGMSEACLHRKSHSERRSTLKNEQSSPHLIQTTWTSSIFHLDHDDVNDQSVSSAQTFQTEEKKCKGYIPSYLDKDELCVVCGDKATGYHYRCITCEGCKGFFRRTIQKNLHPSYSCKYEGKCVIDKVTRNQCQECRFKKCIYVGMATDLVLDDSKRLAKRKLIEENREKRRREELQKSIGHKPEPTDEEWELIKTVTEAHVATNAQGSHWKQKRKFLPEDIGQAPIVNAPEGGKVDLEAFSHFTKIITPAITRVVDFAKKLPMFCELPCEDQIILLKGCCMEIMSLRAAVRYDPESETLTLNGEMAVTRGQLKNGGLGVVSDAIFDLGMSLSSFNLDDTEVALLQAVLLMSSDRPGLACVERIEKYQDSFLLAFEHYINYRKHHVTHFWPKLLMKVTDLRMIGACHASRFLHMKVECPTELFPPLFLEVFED

What follows are compounds tested against Thyroid hormone receptor beta (Homo sapiens) (UniProt P10828) (assay: qHTS for Inhibitors of the Interaction of Thyroid Hormone Receptor and Steroid Receptor Coregulator 2). Conditions: TRbeta-SRC2 peptide binding, fluorescence polarization, receptor liganded with 1 µM T3; series mostly up to 106 µM; activity change, negative = inhibition: at the top concentration.
In short: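 Human TRb LBD (0.6 uM) plus Texas Red-labeled SRC2 peptide (20 nM), 1uM T3, 5% DMSO, 5 hr at ambient temperature. Decreased polarization (555/632 nm) flags inhibition; data normalized to free and bound peptide controls.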
Also: nearly all actives have a fitted effect of over 50% in size.
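For activity change, negative = inhibition in this document: plate controls were bound peptide for no effect and peptide without receptor for full effect.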
Potency is read from the fitted curve at half-maximal effect.

Q: Which Potency does the source give for `COC(=O)CCC(=O)OC1(C)C(=O)C2=CN(C(CO)CO)C(c3ccc(OC)cc3)=CC2=C(Br)C1=O` (stereo unspecified) here?
A: Its Potency is inconclusive: 79.4 µM [inhibitor, single point].

Q: With `O=[N+]([O-])c1ccccc1-c1ccc(/C=N/n2cnnc2)o1` as the compound, how does the “activity change, negative = inhibition” value read?
A: The value was inactive: 5.28%.

Q: Which “activity change, negative = inhibition” value does the source give for `Nc1ccc2nn(-c3ccccc3)nc2c1` here?
A: Its value is inactive: -3.3%.

Q: `Oc1ccc(NCc2cccc(OCc3ccccc3)c2)cc1` was tested. Which Potency did it give?
A: The Potency was active: 31.6 µM.

Q: Which Potency does the source give for `CCCCCc1ccc(OCCC[n+]2ccccc2)c(CCCCC)c1` here?
A: The Potency was active: 70.8 µM.

Q: How did the Potency turn out when `CCCCCCCCCCCCCCCC[n+]1cccc2ccccc21` was run?
A: The Potency was active: 44.7 µM.

Q: `c1ccc(CSc2nnc(-c3ccco3)c(-c3ccco3)n2)cc1` was tested. Which Potency did it give?
A: The Potency was inconclusive: 28.2 µM [inhibitor, full curve].

Q: How did the Potency turn out when `O=C(c1cc2nc(-c3ccco3)cc(C(F)(F)F)n2n1)N1CCc2ccccc2C1` was run?
A: Its Potency is inconclusive: 70.8 µM [inhibitor, single point].

Q: For `O=C(Cn1nnc(-c2ccccc2F)n1)Nc1ccc(S(=O)(=O)NC2CCCC2)cc1`, which Potency is on record?
A: The Potency was inconclusive: 39.8 µM [activator, partial curve].

Q: With `Oc1ccc2ccccc2c1C=NCc1ccccc1` as the compound, how does the Potency read?
A: The Potency was inconclusive: 44.7 µM [inhibitor, partial curve].

Q: For `Oc1c(C=Nc2cccnc2)sc2ccccc12`, which “activity change, negative = inhibition” value is on record?
A: The value was inactive: 8.85%.

Q: `Cc1nn(-c2ccccc2)c(C)c1NC(=O)COc1ccc(C#N)cc1` was tested. Which “activity change, negative = inhibition” value did it give?
A: Its value is inactive: -4.38%.

Q: For `CC(C)Cn1c(N)c(S(=O)(=O)c2cccs2)c2nc3ccccc3nc21`, which Potency is on record?
A: Its Potency is inconclusive: 31.6 µM [inhibitor, full curve].

Q: How did the Potency turn out when `CCOC(=O)c1cnc2nc(NCc3ccc(OC)c(OC)c3)[nH]n2c1=O` was run?
A: Its Potency is inconclusive: 35.5 µM [inhibitor, partial curve].

Q: `Nc1c(C(=O)Nc2nc3ccccc3s2)sc2nc(-c3cccs3)ccc12` was tested. Which Potency did it give?
A: The Potency was inconclusive: 44.7 µM [activator, partial curve].

Q: Which Potency does the source give for `CC(=O)NNC(=O)N1Cc2ccccc2Oc2ccc(Cl)cc21` here?
A: Its Potency is “inactive”.

Q: Which Potency does the source give for `COc1ccc(/C=C(\C#N)c2nc(-c3cc(Cl)ccc3OC)cs2)cc1` here?
A: Its Potency is inconclusive: 1.12 µM [inhibitor, full curve, poor fit].

Q: `Cc1cc(C)cc(N=Cc2[nH]c3ccc(Br)c(Cl)c3c2O)c1` was tested. Which “activity change, negative = inhibition” value did it give?
A: Its value is inactive: 4.56%.

Q: `Cc1cc(=O)c2c(O)c3c(O)cc(O)c4c5c(O)cc(O)c6c(O)c7c(=O)cc(C)c8c1c2c(c34)c(c65)c78` was tested. Which Potency did it give?
A: Its Potency is active: 1.78 µM and active: 12.6 µM.

Q: How did the Potency turn out when `Nc1c(O)ccc2c1C(=O)c1ccccc1C2=O` was run?
A: The Potency was inconclusive: 44.7 µM [inhibitor, partial curve].

Q: With `Nc1cc2nsnc2cc1Br` as the compound, how does the Potency read?
A: Its Potency is inconclusive: 7.08 µM [inhibitor, full curve].

Q: With `CN(/N=C/c1ccc(O)cc1O)c1nc(-c2ccccc2)cc(-c2ccccc2)n1` as the compound, how does the “activity change, negative = inhibition” value read?
A: Its value is inactive: 8.25%.

Q: With `COc1cc(CN(C(=S)NCC(=O)NC2CC2)C2CCCC2)cc(OC)c1OC` as the compound, how does the Potency read?
A: The Potency was inconclusive: 0.0891 µM [inhibitor, full curve, poor fit].

Q: How did the Potency turn out when `N#C/C(=C\c1ccco1)Sc1nc2ccccc2s1` was run?
A: Its Potency is inconclusive: 22.4 µM [activator, partial curve, poor fit].

Q: How did the “activity change, negative = inhibition” value turn out when `NC(=O)c1cccc(CC(=O)c2ccccc2)c1` was run?
A: Its value is inactive: 5.8%.

Q: With `O=C(COC(=O)c1ccc([N+](=O)[O-])o1)Nc1cccc(S(=O)(=O)N2CCOCC2)c1` as the compound, how does the Potency read?
A: The Potency was inconclusive: 3.98 µM [inhibitor, full curve, poor fit].

Q: `COc1cc(C(c2c(C)[nH][nH]c2=O)c2c(C)[nH][nH]c2=O)ccc1OC(=O)c1cccc(C)c1` was tested. Which Potency did it give?
A: Its Potency is inconclusive: 56.2 µM [inhibitor, partial curve].

Q: For `Nc1ccc(N2CCCCC2)c2nonc12`, which Potency is on record?
A: The Potency was inconclusive: 6.31 µM [inhibitor, full curve].

Q: How did the “activity change, negative = inhibition” value turn out when `O=C1NC2(CCCCCCC2)C(=O)N1Cc1ccc(F)cc1` was run?
A: The value was inactive: 2.92%.

Q: Which Potency does the source give for `Cc1cc(C(=O)CSc2nnc(NCc3ccccc3)s2)c(C)n1C` here?
A: The Potency was inconclusive: 79.4 µM [inhibitor, partial curve].

Q: How did the Potency turn out when `N#C/C(=C1\C(=O)Nc2c(Cl)cc(Cl)cc21)c1nnc2n1CCCCC2` was run?
A: Its Potency is inconclusive: 8.91 µM [inhibitor, full curve, poor fit].

Q: `CCCCCn1c(=O)[nH]c2cc(C(=O)N3CCN(c4cccc(OC)c4)CC3)ccc2c1=O` was tested. Which Potency did it give?
A: Its Potency is inconclusive: 35.5 µM [inhibitor, single point].

Q: With `CCCOc1ccc(C(=O)CCN2CCCCC2)cc1` as the compound, how does the Potency read?
A: Its Potency is active: 39.8 µM.

Q: `CSc1nc(N)c2ncn([C@@H]3O[C@H](COP(=O)(O)OP(=O)(O)OP(=O)(O)O)[C@@H](O)[C@H]3O)c2n1` was tested. Which “activity change, negative = inhibition” value did it give?
A: Its value is inactive: 0.291%.

Q: For `Cc1ccccc1C(=O)Nc1nnc(S(=O)(=O)N(C)c2ccc(Cl)cc2)s1`, which Potency is on record?
A: The Potency was inconclusive: 31.6 µM [activator, single point].

Q: Which Potency does the source give for `O=C1C(Cl)=C(NC2CCc3ccccc32)C(=O)c2ncccc21` (stereo unspecified) here?
A: The Potency was inconclusive: 1.12 µM [inhibitor, full curve].

Q: With `NNc1nc2c(F)cccc2s1` as the compound, how does the “activity change, negative = inhibition” value read?
A: The value was inactive: 7.18%.

Q: `O=C(Cn1c(=O)ccc2cc(S(=O)(=O)N3CCCC3)ccc21)Nc1ccccc1` was tested. Which “activity change, negative = inhibition” value did it give?
A: Its value is inactive: 3.95%.

Q: How did the Potency turn out when `CCOc1ccccc1N1CSC2=C(C#N)C(c3c(OC)ccc4ccccc34)CC(=O)N2C1` (stereo unspecified) was run?
A: The Potency was inconclusive: 35.5 µM [inhibitor, partial curve].

Q: `Cc1ccc(CNC(=O)c2ccc3c(c2)CCN3S(=O)(=O)c2ccc(Br)cc2)cc1` was tested. Which “activity change, negative = inhibition” value did it give?
A: Its value is inactive: -6.16%.

Q: With `Cc1nc2ccn(Cc3ccco3)c(=O)c2cc1C(=O)NCc1ccc(Cl)cc1` as the compound, how does the “activity change, negative = inhibition” value read?
A: The value was inactive: 1.18%.

Q: `Cc1ccc(NC(=S)NC2CCN(Cc3ccccc3)CC2)cc1` was tested. Which “activity change, negative = inhibition” value did it give?
A: Its value is inactive: -6.63%.

Q: `O=c1cc(-c2ccc(O)cc2)oc2cc(O)cc(O)c12` was tested. Which Potency did it give?
A: Its Potency is inconclusive: 50.1 µM [activator, partial curve, poor fit].

Q: How did the Potency turn out when `CCCOc1ccc(C2=NNC(c3cccs3)=Nc3ccc(OC)cc32)cc1` was run?
A: The Potency was inconclusive: 112 µM [inhibitor, partial curve, poor fit].

Q: `CN(C)c1ccc(N/C=C/C(=O)C(F)(F)F)cc1` was tested. Which Potency did it give?
A: The Potency was active: 44.7 µM.

Q: For `CCOC(=O)c1c(/N=C/C2=C(O)CCCC2=O)sc2c1CCCC2`, which Potency is on record?
A: The Potency was inconclusive: 50.1 µM [inhibitor, single point].

Q: Which “activity change, negative = inhibition” value does the source give for `CCN(CC)c1ccc(NC2CC(=O)N(CCc3ccc(OC)cc3)C2=O)cc1` (stereo unspecified) here?
A: The value was inactive: -13.1%.

Q: `CCc1cc(C(C)=O)c(O)cc1OCCCCCC(C)(C)c1nn[nH]n1` was tested. Which Potency did it give?
A: Its Potency is inconclusive: 50.1 µM [activator, partial curve].

Q: With `COc1ccc(-c2nc(SCC(=O)Nc3ccc4c(c3)OCCO4)c(-c3ccccc3)[nH]2)cc1` as the compound, how does the “activity change, negative = inhibition” value read?
A: Its value is inactive: -0.277%.

Q: For `COc1ccc(NC(=O)CSc2ccc3c4c(cccc24)C(=O)c2ccccc2-3)cc1`, which “activity change, negative = inhibition” value is on record?
A: Its value is inactive: -0.502%.

Q: Which Potency does the source give for `Cc1ccc(C)c(S(=O)(=O)Nc2cc(SCC(=O)O)c(O)c3ccccc23)c1` here?
A: Its Potency is inconclusive: 28.2 µM [inhibitor, partial curve].

Q: With `O=C(N[C@@H](Cc1ccccc1)C(=O)CCl)OCc1ccccc1` as the compound, how does the Potency read?
A: The Potency was inconclusive: 31.6 µM [inhibitor, partial curve].

Q: `O=C(c1cccs1)N1CCC(N2CCN(c3ccccc3)CC2)CC1` was tested. Which Potency did it give?
A: Its Potency is inconclusive: 0.178 µM [inhibitor, full curve, poor fit].

Q: `CCCCN(CC)CCCNC(=O)c1cn(C)c(=O)c2c1c1ccccc1n2C` was tested. Which Potency did it give?
A: The Potency was inconclusive: 0.112 µM [inhibitor, full curve, poor fit].

Q: How did the “activity change, negative = inhibition” value turn out when `C/C(Cn1nnc([N+](=O)[O-])n1)=N\NC(=O)c1ccccc1Cl` was run?
A: Its value is inactive: 9.8%.

Q: Which Potency does the source give for `COc1ccc(C2NC3=C(CCCC3)C(C#N)(C#N)C2(C#N)C#N)cc1` (stereo unspecified) here?
A: The Potency was inconclusive: 56.2 µM [inhibitor, partial curve, poor fit].

Q: Which Potency does the source give for `Cn1c(NNC(=O)c2c(F)cccc2F)cc(=O)n(C)c1=O` here?
A: The Potency was inconclusive: 17.8 µM [inhibitor, full curve].

Q: Which Potency does the source give for `COc1cc(CN2CCN(c3cccc(Cl)c3)CC2)cc(OC)c1OC` here?
A: Its Potency is inconclusive: 79.4 µM [inhibitor, partial curve].

Q: `CC1CCCN(c2nc3ccccc3nc2C(C#N)S(=O)(=O)c2ccccc2)C1` (stereo unspecified) was tested. Which Potency did it give?
A: The Potency was inconclusive: 44.7 µM [inhibitor, partial curve].

Q: How did the Potency turn out when `O=C(O)c1cccc(-n2cccc2/C=C2/NC(=O)N(c3ccc(Cl)cc3)C2=O)c1` was run?
A: Its Potency is inconclusive: 25.1 µM [activator, full curve].

Q: For `CC(C)(C)C(=O)Cn1c(=O)n(CCCCCC(=O)NCc2ccccc2Cl)c(=O)c2sccc21`, which “activity change, negative = inhibition” value is on record?
A: The value was inactive: -5.96%.

Q: With `Cc1ccc(N2CC(C(=O)Nc3ccc4c(c3)OCO4)CC2=O)cc1` (stereo unspecified) as the compound, how does the Potency read?
A: The Potency was inconclusive: 100 µM [inhibitor, partial curve, poor fit].

Q: For `C/C(=N\NC(=O)c1cc2ccccc2cc1O)c1cc2ccccc2o1`, which Potency is on record?
A: The Potency was inconclusive: 44.7 µM [activator, partial curve].

Q: `CCCCOc1ccc(C(=O)CCN2CCOCC2)cc1` was tested. Which Potency did it give?
A: The Potency was active: 5.62 µM.

Q: How did the “activity change, negative = inhibition” value turn out when `COCCCNC(=O)c1cc2c(=O)n3cccc(C)c3nc2s1` was run?
A: The value was inactive: 1.09%.

Q: How did the “activity change, negative = inhibition” value turn out when `COc1ccc(N2CCN(C(CNC(=O)C(C)(C)C)c3cccnc3)CC2)cc1` (stereo unspecified) was run?
A: The value was inactive: -0.292%.

Q: `CC(=O)Oc1c(C)cc(O)c2ccccc12` was tested. Which “activity change, negative = inhibition” value did it give?
A: Its value is inactive: -1.1%.

Q: For `COc1ccc(CC(=O)Nc2c(C(=O)Nc3ccccc3F)oc3ccccc23)cc1`, which Potency is on record?
A: Its Potency is inconclusive: 79.4 µM [inhibitor, single point].

Q: With `O=C1C=C(N(CCO)Cc2ccccc2)c2ccccc2C1=O` as the compound, how does the Potency read?
A: Its Potency is inconclusive: 7.94 µM [inhibitor, full curve].

Q: For `CCOC(=O)c1c(NC(=O)/C=C/C(=O)O)sc(C)c1-c1ccc(F)cc1`, which Potency is on record?
A: The Potency was inconclusive: 39.8 µM [inhibitor, partial curve].

Q: For `CC1=NN(c2ccc(F)cc2)C(=O)C1C(c1cccc(O)c1)c1c(C)[nH]n(-c2ccc(F)cc2)c1=O` (stereo unspecified), which Potency is on record?
A: Its Potency is inconclusive: 3.98 µM [inhibitor, full curve].
